{"source": "patent US5310728A", "about": "“Method for treating corneal endothelial wounds” (Chiron Ophthalmics, Inc., priority 1992, dated 1994)", "test_system": "TGF-α immunoreactivity", "assay": "Radioimmunoassay of TGF-α in cat anterior chamber fluid before and after touch injury to the corneal endothelium", "format": "in vivo", "conditions": "for Concentration of TGF-α in anterior chamber samples, mean: cat, RIA", "data": [{"substance": "transforming growth factor alpha [TGF-α]", "values": [{"measurement": "Concentration of TGF-α in anterior chamber samples, mean", "setting": "0 hr (prior to wounding)", "result": 6.83, "unit": "ng/mL"}, {"measurement": "Concentration of TGF-α in anterior chamber samples, mean", "setting": "2 hr after touch injury", "result": 97.44, "unit": "ng/mL"}, {"measurement": "Concentration of TGF-α in anterior chamber samples, mean", "setting": "6 hr after touch injury", "result": 63.28, "unit": "ng/mL"}, {"measurement": "TGF-α level relative to pre-injury level", "setting": "24 hours after surgery", "result": "approximately 6 fold"}, {"measurement": "Concentration of TGF-α in anterior chamber samples, mean", "setting": "24 hr after touch injury", "result": 35.46, "unit": "ng/mL"}, {"measurement": "Increase of TGF-α concentration over pre-wounding level", "setting": "two hours after the wounding", "result": "approximately 16 fold"}]}]}
